Measurements reported in PubChem BioAssay AID686943 (Drosophila RNAi Screening Center, 2013).

Assay: 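Search across the genome for regulators of signalling from receptor tyrosine kinase to ERK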 (primary screen)
System: Drosophila S2R+ haemocyte-like cells expressing YFP-tagged ERK (Rolled)
Knock-down reagent: long dsRNA against Drosophila genes
Challenge: insulin stimulation versus unstimulated cells; dose and duration not given
Read-out: 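Per-plate z-scores of phospho-ERK immunostaining normalised to YFP-tagged ERK, measured with and without insulin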
Scale: replicate 1, z-score of dpERK with insulin and replicate 2, z-score of dpERK with insulin: higher = more active ERK per ERK-YFP after insulin; replicate 1, z-score of dpERK under basal conditions: higher = more basal active ERK per ERK-YFP; replicate 1, z-score of ERK-YFP with insulin: higher = more YFP-tagged ERK signal
The deposit covers about 23,000 reagents; this is a random part of those with a known target gene and a result. 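Extra replicates exist only for a retested subset of genes; insulin dose and duration not given; both raised and lowered dpERK matter.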 Names joined by + are all predicted targets of the reagent. Reagent sequences are not shown. The record does not give: the amount of reagent, the time to read-out.

| gene knocked down | amplicon | replicate 1, z-score of dpERK with insulin | replicate 2, z-score of dpERK with insulin | replicate 1, z-score of dpERK under basal conditions | replicate 1, z-score of ERK-YFP with insulin |
| --- | --- | --- | --- | --- | --- |
| nAChRbeta3 (GeneID 33228) | DRSC00325 | -0.32 | 1.4 | 0.49 | -1.68 |
| hpRNA:CR18854 (GeneID 10178800) | DRSC02702 | -1.79 | -1.25 | -0.95 | -0.57 |
| heix (GeneID 34961) | DRSC03542 | 0.46 | -0.52 | 1.68 | -2.2 |
| CG33648 (GeneID 3772188) | DRSC01387 | 0.53 | 0.62 | 1.55 | 0.59 |
| form3 (GeneID 3346238) | DRSC10195 | -0.16 | -0.12 | -0.34 | 0.43 |
| form3 (GeneID 3346238) | DRSC10297 | -0.12 | -0.14 | -0.2 | -0.33 |
| form3 (GeneID 3346238) | DRSC11024 | 0.89 | 0.8 | -0.24 | -0.23 |
| CG9586 (GeneID 34241) | DRSC03270 | 0.46 | 0.18 | 1.2 | -0.46 |
| CG12320 (GeneID 42189) | DRSC14498 | 0.5 | 0.13 | 0.03 | 0.01 |
| CG13202 (GeneID 36222) | DRSC06326 | 0.53 | -0.08 | -0.81 | 0.1 |
| CG14400 (GeneID 35354) | DRSC02384 | 0.22 | 0.08 | 2.31 | -0.51 |
| ham (GeneID 35135) | DRSC01657 | 1.15 | 0.04 | -0.07 | 0.21 |
| ham (GeneID 35135) | DRSC02070 | 0.99 | 0.83 | 0.03 | 0.17 |
| ham (GeneID 35135) | DRSC02512 | 0.37 | 0.8 | 0.15 | 0.77 |
| ham (GeneID 35135) | DRSC02513 | 0.17 | 0.8 | 2.4 | 0.16 |
| CG11437 (GeneID 40470) | DRSC11659 | -0.11 | 0.08 | 2.22 | 0.83 |
| CR33013 (GeneID 14462581) | DRSC06286 | -0.69 | -0.11 | 0.15 | 0.66 |
| CG34305 (GeneID 5740825) | DRSC11995 | -0.47 | -0.61 | -0.36 | 0 |
| CG32263 (GeneID 317944) | DRSC22431 | -0.09 | -0.73 | -0.46 | -0.4 |
| SLIRP1 + anox | DRSC20542 | -0.32 | 1.26 | -0.02 | -0.21 |
| CG7296 (GeneID 34469) | DRSC03042 | 0.63 | -0.25 | 0.46 | 0.59 |
| CG7296 (GeneID 34469) | DRSC22343 | 0.03 | -0.26 | -0.22 | 0.07 |
| Nplp3 (GeneID 59235) | DRSC09944 | 1.54 | 1.63 | -0.05 | -0.38 |

Laid out differently: entries from further up
gene knocked down | amplicon | replicate 1, z-score of dpERK with insulin | replicate 2, z-score of dpERK with insulin | replicate 1, z-score of dpERK under basal conditions | replicate 1, z-score of ERK-YFP with insulin
heix (GeneID 34961) | DRSC03542 | 0.46 | -0.52 | 1.68 | -2.2
CG33648 (GeneID 3772188) | DRSC01387 | 0.53 | 0.62 | 1.55 | 0.59
form3 (GeneID 3346238) | DRSC10195 | -0.16 | -0.12 | -0.34 | 0.43
